# A negative result means that nothing was seen under these conditions.
# By UniProt entry, the sequences of proteins in these tests, tags left out. Where a name states a change or a piece, a line headed by the entry shows the natural chain unless it says otherwise.
# UniProt P68398: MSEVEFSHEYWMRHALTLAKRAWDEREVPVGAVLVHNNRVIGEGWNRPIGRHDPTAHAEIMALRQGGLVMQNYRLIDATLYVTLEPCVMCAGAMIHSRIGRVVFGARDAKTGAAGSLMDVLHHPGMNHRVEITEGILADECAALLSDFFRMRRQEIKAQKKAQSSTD
# Biological target: TadA wild type (Escherichia coli) (UniProt P68398)
# Test: binding assay
# Settings: N6-methyl-A at all A (transcribed with N6-methyl-ATP); fully rejects N6-methyladenosine in tRNA; purified recombinant protein; variant of E. coli tRNAArg(ACG) unmethylated
sequence,measurement,value
GCAUCCGUAGCUCAGCUGGAUAGAGUACUCGGCUACGAACCGAGCGGUCGGAGGUUCGAAUCCUCCCGGAUGCACCA [E. coli tRNAArg(ACG) N6-methyl-A],binding result,no binding

# From patent publication US20240352439
